The values are deposited in ChEMBL (CHEMBL3988442, “University of Dundee, Small-Polar-MMV Screening Library” (2021)).

By UniProt entry, the sequences of proteins in these tests, tags left out.
UniProt E9BF75, entry or part of it: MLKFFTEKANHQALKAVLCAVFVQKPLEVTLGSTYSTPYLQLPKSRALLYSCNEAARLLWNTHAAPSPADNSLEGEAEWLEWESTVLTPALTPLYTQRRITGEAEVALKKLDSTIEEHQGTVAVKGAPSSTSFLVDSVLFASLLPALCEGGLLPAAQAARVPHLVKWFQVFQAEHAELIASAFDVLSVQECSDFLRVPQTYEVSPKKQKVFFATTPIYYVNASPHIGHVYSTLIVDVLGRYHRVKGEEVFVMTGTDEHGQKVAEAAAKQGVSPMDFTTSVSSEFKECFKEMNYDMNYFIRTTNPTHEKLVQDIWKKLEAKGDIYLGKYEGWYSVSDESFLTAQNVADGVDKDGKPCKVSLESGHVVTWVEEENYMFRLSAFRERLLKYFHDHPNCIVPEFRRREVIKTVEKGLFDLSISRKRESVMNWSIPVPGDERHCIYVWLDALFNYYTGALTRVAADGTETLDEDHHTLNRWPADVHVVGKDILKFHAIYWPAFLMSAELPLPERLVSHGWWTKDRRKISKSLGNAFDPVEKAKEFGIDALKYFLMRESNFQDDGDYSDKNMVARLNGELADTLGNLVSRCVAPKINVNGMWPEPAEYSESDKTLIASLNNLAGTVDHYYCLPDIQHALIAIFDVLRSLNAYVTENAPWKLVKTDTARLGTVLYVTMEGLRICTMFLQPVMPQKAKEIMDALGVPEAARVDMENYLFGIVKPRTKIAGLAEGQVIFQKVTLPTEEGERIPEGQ

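Primary screen of methionyl-tRNA synthetase; the read-out is not stated. Target: Methionyl-tRNA synthetase (putative), Leishmania donovani (UniProt E9BF75). The test concentration is not given. The values are filed as inhibition. Of about 68,000 compounds tested this way, about 24 (0.035%) reached 50% or more in at least one test.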

Results are percentages, as filed. The controls that fix the scale are not given in the record; negative values are as filed. This is an unselected part of the compounds tested.

- Cc1ccc(C(=O)Nc2cc(C(N)=O)ccc2CN(C)C)cc1Cl | 17.04%
- O=C(Nc1ccc(CCN2CCOCC2)cc1)C1CCCC1 | 14.92%
- COCCC(C)NC(=O)N1CCSC(C)(C)C1 (centres undefined) | 12.98%
- CN1CCN(C(=O)c2nnc3ccc(Cl)cc3n2)CC1 | 9.922%
- Cc1cccc(NC(=O)N2Cc3c(CN(C)C)nn(C)c3C2)c1 | 6.62%
- O=C(Cc1cccs1)N1CCCC(CNS(=O)(=O)Cc2ccccc2)C1 (centres undefined) | 12.24%
- CCOc1ncccc1NC(=O)N1CCCC(CNC(N)=O)C1 (centres undefined) | 14.29%
- CC1=N[C@@]2(CC[C@@H]3CNC[C@@H]32)C(=O)N1CC(C)C | 1.01%
- Cc1cc(C)c2c(C(=O)N(C)C)cc(-c3cnc(N)nc3)nc2c1 | 10.87%
- O=C(NCCC(=O)N1CCCc2ccccc21)c1ccc(F)cc1F | 20.99%
- CCNC(=O)N1CCc2ccc(NC(=O)NCCOCC)cc21 | 17.18%
- CC(C)NC(=O)CC1CC2(CCN(S(C)(=O)=O)CC2)c2ccccc21 (centres undefined) | 6.25%
- COCC(=O)N1CCC2(CCN(Cc3cccnc3)C2)CC1 | 18.49%
- CC(C)CS(=O)(=O)Nc1ccc([C@H]2OCC(=O)N[C@@H]2CO)cc1 | 8.271%
- CNC(=O)NC(=O)C(C)N1CCN(C2CCCC2)CC1 (centres undefined) | 11.98%
- Cc1cc(C)nc(N2CCCC(C(=O)Nc3n[nH]c(C(C)C)n3)C2)n1 (centres undefined) | 8.009%
- O=C(O)c1c(-c2cccnc2)ncc2c1CCN(Cc1ccccn1)C2 | 1.961%
- CCc1nc(CNCCn2cc(C)cn2)no1 | 20.11%
- CC1CCCN(CC(=O)N2CCC(c3ncc4c(n3)CCNC4)CC2)C1 (centres undefined) | -0.3484%
- Cc1nc(C)n(CC2CCCN2CC(=O)Nc2cccnc2)n1 (centres undefined) | 11.05%
- Cc1nccn1Cc1nnc(C2CCCN(Cc3cccnc3)C2)n1C (centres undefined) | 4.444%
- Cc1nc(CN2C(=O)C[C@@H]3[C@@H]2CCN3S(C)(=O)=O)cs1 | 16.56%
- Cn1c(N2CCOCC2)nc2cc(C(=O)N3CC(O)CO3)ccc21 (centres undefined) | 1.416%
- COC[C@H]1CNC(=O)[C@@H]2CCN(Cc3cccc(C)n3)CC[C@H]12 | 16.3%
- CN(c1ncccc1C#N)C1CCN(CCc2ccccn2)CC1 | 8.02%
- O=C(CCSC1CCc2ccccc2NC1=O)NCCCO (centres undefined) | 21.1%
- CN(CCn1ccnc1-c1ccccn1)S(C)(=O)=O | 0%
- COCCN(C)CC1CCCN1S(=O)(=O)Cc1ccccc1F (centres undefined) | 1.847%
- NC(=O)N1CCCC(C(=O)N2CCc3c(nc(CC4CC4)[nH]c3=O)C2)C1 (centres undefined) | 6.183%
- C1Cc2nc(CCNc3nc(C4CC4)nc4c3CCNCC4)sc2C1 | 12.06%
- CCC(NC(=O)C1CCN(S(C)(=O)=O)CC1)c1ccc(OC)c(OC)c1 (centres undefined) | 11.81%
- O=C(NCc1ccccc1F)NCC(O)c1cccc(F)c1 (centres undefined) | 18.23%
- COc1ccc(F)c(-c2ncccc2C(=O)N2C[C@H]3CC[C@@H]2C3)c1 | 11.91%
- CCc1cn[nH]c1C1CCCN(C(=O)c2cnc(NC(C)C)nc2)C1 (centres undefined) | 14.78%
- COCCC1(CNC(=O)NCC2CCCS2)CCCC1 (centres undefined) | 12.32%
- N#Cc1ccc(CN2C[C@@H](F)[C@@H](OCc3nc4cnccc4[nH]3)C2)cc1 | 12.03%
- CO[C@@H]1CC[C@H]2[C@H]1OCCN2Cc1ccccn1 | -6.25%
- C1CN(c2nc(C3CC3)ns2)CCO1 | 19.73%
- Cc1cnn(CCNCc2ccc(OCc3cccnc3)cc2)c1 | 20.34%
- CC1=CC[C@@H]2CN(C(=O)c3ccc(-c4nnn(C)n4)cc3)C[C@@H]2C1 | 5.115%

2 of the entries, repeated:

- CNC(=O)NC(=O)C(C)N1CCN(C2CCCC2)CC1 (centres undefined) : 11.98%
- COCCC(C)NC(=O)N1CCSC(C)(C)C1 (centres undefined) : 12.98%